± gives the standard deviation of the averaged measurements. Most values lie at the floor of the assay. Slopes are relative: functional sequences can read slightly below zero. Where only a bound is given, the exact number is not on record here.

This series deals with Saccharomyces cerevisiae PS128 hsf1 delta, HSF1(1-493) fusion. Description: growth estimate (transactivation domain function in HSF1 fusion, heat-shock survival) (a.u. (slope of normalised read count over time)); higher = stronger growth at 37°C, i.e. more transactivation activity. To be noted: library: random library.
In the case of AEGKAQAKLGHVPDPVES, the growth estimate is under -0.25.
YCFL: the growth estimate is under -0.25.
With RVPLGHIVVRFLTGSCKGRW the figure was under -0.25.
With PVL the figure was -0.248 ± 0.0034; with FGAATLPRRGDCRIDIRGRF, under -0.25; with LFPSRWRGFEKGRSPCEKSV, under -0.25.
With GTLTESDYATDMSDFRRHCH the figure was under -0.25; with TSGTLRLDYLRWSVMLA, under -0.25; with SRHSCRAFQLVDLVKCG, under -0.25.
As to SQNASRAANHLIVVTARREP, the growth estimate is under -0.25.
Take VHPTLDGHIWSRILT: the growth estimate was under -0.253.
Take FALAYRHISTMTIGSIGKHK: the growth estimate was under -0.25.
With LERHLKWQITAYPRGHPDII the figure was under -0.25; with PCERCLSVHPRWACSRSPGM, -0.203.
Turning to GISFTASPVCGFWL, the growth estimate is -0.0277.
Turning to PVRVPLPGFHPQGVVCTYAP, the growth estimate is -0.196.
For the substance GRVP, the growth estimate was under -0.25.
As to LLPKP, the growth estimate is under -0.25.
LGSGQVCRSKGGQWSGADSF: the growth estimate was under -0.25.
As to LRKTL, the growth estimate was under -0.25.
ATGEQWSPSTLLQG: the growth estimate was under -0.25.
With RHWHLLVQRFPGPHACSSTT the figure was under -0.25.
With KVHD the figure was under -0.25; with ELNND, under -0.25.
With KGNTSADAGRGYRRASQFIG the figure was under -0.25; with KSIMTT, under -0.25; with LAGQWLFASMRLPGGKRGQP, under -0.25.
As for VPE, the growth estimate is under -0.25.
As for SVVIEK, the growth estimate is under -0.25.
Next, KAVLSCRSICRPTGHLSERC: under -0.25; RKAIANLIQYIPNHA: under -0.25; RGNCLQDILDTSHVQN: under -0.25.
On to PPKGPPGQTGVVRGYSALPR, for which the growth estimate is under -0.25.
Next, RRTRKHGCFRLRSLAVFTSS: under -0.25; FLSREVTPRIL: under -0.25.
On to HSH, for which the growth estimate was under -0.25.
Consider IRERSLCELRAAYGASRVIV, for which the growth estimate is under -0.25.
Regarding RLGARNSLL, the growth estimate was under -0.25.
In the case of QIGPHERLATTF, the growth estimate was under -0.25.
Next, GRVETTR: under -0.25; GCVVRP: under -0.25.
As to TLMDRIKSWTSGFAIIALLR, the growth estimate is under -0.25.
As to GGVWQKMLIVRLTLLGLGLR, the growth estimate was under -0.25.
With LRSES, the growth estimate was under -0.25.
For LRVSRLTGKRSH, the growth estimate was under -0.25.
For the substance ATDQGSNWM, the growth estimate was under -0.25.
Consider AEFVVAVLFGKTFIRSFGQA, for which the growth estimate was under -0.25.
With PYINCSM the figure was under -0.25; with VLKTWYLEFEVNRLTQHSPV, under -0.25; with LNRVML, under -0.25.
With HNQPSV the figure was under -0.25; with FRERCLGLVQSSLWIVKYTD, under -0.25.
Next, SSLVSNTLQGIPPWVPPNPQ: under -0.25; TSTVLKCRGQTSSSGLANIA: under -0.25; KPLTLAPS: under -0.25.
With SKSRCALFRCVGEYVVLVVR, the growth estimate was under -0.25.
As for VQDSQASRIENNERRHLQSY, the growth estimate is under -0.25.
With WNVFIASRLFSAGNSS the figure was under -0.25.
Next, WRKSKGAWK: under -0.25; YMTCNTAVFRRVAAAVNVTI: under -0.25.
With LKPKLCHRLKMGLAGT the figure was under -0.25.
As to REGSIAQYR, the growth estimate was under -0.25.
On to TTNSIYFNLQSELERTGLLN, for which the growth estimate was under -0.25.
With QSYKPKIVAKGCVRRDFVIA the figure was under -0.25.
Regarding GDWTLPVLFVLTATRQRKVG, the growth estimate was under -0.25.
Regarding QLGPDVTSETVVM, the growth estimate was under -0.25.
For VPRSRA, the growth estimate is under -0.25.
With STYSVP, the growth estimate was under -0.25.
Take CLFSNWLVKK: the growth estimate was under -0.25.
Next, CVTYRDDGMTQIGGYGCQIP: under -0.25; SVVEMLVVRTRPFTSTCQ: under -0.25.
With IQLAIVNDRQPQKFTTWVLA the figure was under -0.25; with SGVTVAAGCKGELSAT, under -0.25.
With GLRVSRVQSG, the growth estimate is under -0.25.
For the substance QIVDRVSYARKETISTGDVS, the growth estimate is under -0.25.
With TGDRARSSVNRVASRGSVGY the figure was under -0.25.
SDVRGSAPQVVLGTVDRGNP: the growth estimate is under -0.25.
Next, IAQQGDDFLERVGWPGPGCA: under -0.25; SPAAQAVGTHLQHVRRGVVQ: under -0.25.

The record behind these values is the supplement of paper PMC5949888.
